No constants are given. Whether binding was seen depends on the method and setting. In cells and extracts the contact can be indirect. Some binding calls cover weakened binding; strength is not graded here.
target: GFP-tagged pVHL213 (VHL213-GFP) (human) (UniProt P40337); test: co-IP; GFP-Trap MA beads on lysates of transfected HeLa cells (10 mM Tris HCl pH 7.5, 150 mM NaCl, 0.5 mM EDTA, 0.5% Nonidet P40), 90 min at 4 C; Western blot

Chains of the proteins cited; added tags and fusions are not shown.
UniProt P40337: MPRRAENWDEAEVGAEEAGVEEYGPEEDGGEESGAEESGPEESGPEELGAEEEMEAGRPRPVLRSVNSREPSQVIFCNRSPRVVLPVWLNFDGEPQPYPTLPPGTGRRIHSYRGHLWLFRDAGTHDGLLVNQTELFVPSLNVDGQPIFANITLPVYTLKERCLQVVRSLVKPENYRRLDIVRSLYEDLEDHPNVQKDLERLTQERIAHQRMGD
UniProt O60925: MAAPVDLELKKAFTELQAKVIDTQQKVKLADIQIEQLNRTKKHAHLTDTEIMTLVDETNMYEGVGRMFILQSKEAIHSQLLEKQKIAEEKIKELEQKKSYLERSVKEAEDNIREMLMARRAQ
UniProt Q99471: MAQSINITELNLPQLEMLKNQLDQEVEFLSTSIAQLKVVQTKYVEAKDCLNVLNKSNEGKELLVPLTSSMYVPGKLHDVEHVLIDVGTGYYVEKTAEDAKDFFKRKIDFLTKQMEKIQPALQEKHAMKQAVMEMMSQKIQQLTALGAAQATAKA

binding	Substance
binds	Prefoldin subunit 1 (from UniProt O60925 1-122)
binds	Prefoldin subunit 3 (from UniProt P61758-1 1-197)
binds	Prefoldin subunit 5 (from UniProt Q99471 1-154)

From publication PMC7660911
